# Test results: paper PMC10864461
# No constants are given. Whether binding was seen depends on the method and setting. Binding seen in cells or lysates may run through a third protein. Some binding calls cover weakened binding; strength is not graded here.
# B1: thioredoxin interacting protein (Txnip) (protein, UniProt Q8BG60 1-397)
# chain: MVMFKKIKSFEVVFNDPEKVYGSGEKVAGRVIVEVCEVTRVKAVRILACGVAKVLWMQGSQQCKQTLDYLRYEDTLLLEEQPTAGENEMVIMRPGNKYEYKFGFELPQGPLGTSFKGKYGCVDYWVKAFLDRPSQPTQEAKKNFEVMDLVDVNTPDLMAPVSAKKEKKVSCMFIPDGRVSVSARIDRKGFCEGDDISIHADFENTCSRIVVPKAAIVARHTYLANGQTKVFTQKLSSVRGNHIISGTCASWRGKSLRVQKIRPSILGCNILKVEYSLLIYVSVPGSKKVILDLPLVIGSRSGLSSRTSSMASRTSSEMSWIDLNIPDTPEAPPCYMDIIPEDHRLESPTTPLLDDVDDSQDSPIFMYAPEFQFMPPPTYTEVDPCVLNNNNNNNNVQ
# Tests used:
# [1] = molecular target: T1, thioredoxin 2 (Trx2) (mouse (endogenous in mouse atrium and HL-1 cells)) (UniProt P97493); test: co-IP; endogenous proteins from HL-1 cells (mitochondria) under high glucose (30 mM) or normal glucose; IP lysis buffer, protein A/G magnetic beads, Txnip or Trx2 antibody (20 ug/mL) or IgG, immunoblot; with Zbtb16 or Txnip knockdown by adenovirus
# T1 sequence: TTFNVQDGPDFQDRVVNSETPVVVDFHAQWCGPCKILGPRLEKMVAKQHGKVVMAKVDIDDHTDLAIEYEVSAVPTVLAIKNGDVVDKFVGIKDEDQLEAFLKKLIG
# [2] = molecular target: T1, thioredoxin 2 (Trx2) (mouse (endogenous in mouse atrium and HL-1 cells)); test: co-IP; endogenous proteins from atrium mitochondria of db/+ and db/db mice; IP lysis buffer, protein A/G magnetic beads, Txnip or Trx2 antibody (20 ug/mL) or IgG, 1 h at room temperature, immunoblot; also after atrial-specific Zbtb16 or Txnip knockdown by AAV9
binder,measurement,setting,value
B1,binding,[1],binds
same,binding,[2],binds
